Some results were stated once for a whole list of compounds, not compound by compound.
How the values were obtained:
[1] = HPLC chemical purity of milled suspensions (stability to milling); assay type: physicochemical; conditions: after milling with F127
Procedure: (§1) A milling procedure was employed in which aqueous dispersions containing coarse compound particles were individually milled with F127 at near-neutral pH buffer using a grinding medium. Briefly, a slurry containing 5% of compound and 5% F127 in PBS (0.0067 M PO4^3−), pH 7.1 was added to an equal bulk volume of 1-mm ceria-stabilized zirconium oxide beads in a glass vial (e.g., 2 mL of slurry per 2 mL of beads). A magnetic stir bar was used to agitate the beads, stirring at approximately 500 rpm at ambient conditions for 25 hours.
The HPLC method used to determine the purity of milled suspensions is as follows: column—SunFire™ C18, 3.5 μm, 3.0×150 mm, column temperature—40° C., flow rate—0.7 mL/min, detection wavelength—254 nm, flow gradient—50:50 (0 minutes) to 0:100 (10 minutes) 0.1% phosphoric acid/H2O:acetonitrile.

[2] = DLS particle size and PDI of hydrocortisone derivatives milled with Pluronic F127 (Examples 8, 9); assay type: physicochemical; conditions: 5% compound, 5% F127 in PBS pH 7.1, milled 25 hours
Procedure: as §1
The milled suspensions were subjected to dynamic light scattering (DLS) measurements to determine particle size and polydispersity index (PDI, a measure of the width of the particle size distribution). The samples for DLS measurements were buffered with HyClone™ PBS (Phosphate-Buffered Saline) to produce isotonic samples that have a physiologically relevant pH.
Form 3-B was wet-milled using the same method that generated the data in Tables 13 and 14.

Compound | Purity after milling [1] [%] | PDI of milled suspension [2] | Size (Z-averaged) of milled suspension [2] [nm]
C[C@]12CCC(=O)C=C1CC[C@@H]1[C@@H]2[C@@H](O)C[C@@]2(C)[C@H]1CC[C@]2(OC(=O)c1ccco1)C(=O)CO [Compound 2, (10R,11S,13S,17R)-11-hydroxy-17-(2-hydroxyacetyl)-10,13-dimethyl-3-oxo-2,3,6,7,8,9,10,11,12,13,14,15,16,17-tetradecahydro-1H-cyclopenta[a]phenanthren-17-yl furan-2-carboxylate] | > 96 | – | –
(10R,11S,13S,17R)-11-hydroxy-17-(2-hydroxyacetyl)-10,13-dimethyl-3-oxo-2,3,6,7,8,9,10,11,12,13,14,15,16,17-tetradecahydro-1H-cyclopenta[a]phenanthren-17-yl 3-(phenylsulfonyl)propanoate [Compound 1] | > 96 | < 0.20 | < 350
